According to publication PMC7862700:
The list shows a part of the results. The exact form of the protein is not confirmed.

The sequences below were run against T1, ELF2 (UniProt Q15723) (assay: DAPPL (digital affinity profiling via proximity ligation, sequencing)). Conditions: 10 mM Tris-HCl pH 7.5, 50 mM NaCl, 1 mM DTT, 4% glycerol, room temperature, 30 min; GST-TFs on glutathione beads, 16-mer random dsDNA library, 0.1% …; high values mean tight binding; double strand, one strand shown; scale: fold enrichment (6-mer frequency, TF over GST control).
T1 sequence: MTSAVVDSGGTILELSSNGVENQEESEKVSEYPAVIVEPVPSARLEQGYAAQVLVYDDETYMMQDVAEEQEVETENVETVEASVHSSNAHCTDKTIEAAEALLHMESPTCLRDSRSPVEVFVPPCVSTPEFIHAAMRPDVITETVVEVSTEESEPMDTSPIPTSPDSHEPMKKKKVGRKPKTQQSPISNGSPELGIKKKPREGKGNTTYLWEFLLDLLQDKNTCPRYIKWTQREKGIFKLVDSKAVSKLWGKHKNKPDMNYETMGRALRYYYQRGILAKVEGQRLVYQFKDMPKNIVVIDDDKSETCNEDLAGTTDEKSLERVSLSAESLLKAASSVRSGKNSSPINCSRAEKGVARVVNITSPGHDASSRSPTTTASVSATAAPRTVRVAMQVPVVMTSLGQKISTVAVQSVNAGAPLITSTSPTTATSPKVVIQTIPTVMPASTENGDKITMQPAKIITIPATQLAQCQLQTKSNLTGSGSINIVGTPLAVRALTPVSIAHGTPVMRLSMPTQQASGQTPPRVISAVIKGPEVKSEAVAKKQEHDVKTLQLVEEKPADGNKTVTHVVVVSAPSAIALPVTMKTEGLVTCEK

Sequence | binding signal
TAAAGA | 1.1
ATCATG | 1.03
TCTGAT | 1.07
ATAAAT | 1.2
TACGCT | 1.27
AATGTC | 1.28
ACCATA | 1.11
TTACGA | 1.12
ATTTGG | 1.33
AGTATC | 1.22
GGTTTC | 1.62
GTTTCC | 3.5
TCGCAC | 0.994
TGTCTC | 1.17
TGTTAT | 1.38
CCCGCA | 1.2
GCAAAA | 1.04
GCTCTG | 1.1
CGATGA | 0.972
TATCGA | 1.24

Copied from the list:
GCAAAA | binding signal: 1.04
TCGCAC | binding signal: 0.994
ATCATG | binding signal: 1.03

The results go on:

Sequence | binding signal
CATATA | 1.06
ATTTAC | 1.24
TATCGT | 1.07
TAAGAT | 1.2
GTACAT | 1.32
TTCTTC | 2.21
CCGATA | 1.16
CGACCC | 1.32
AGCCCT | 1.1
ATTTTT | 1.16
GAACCA | 1.04
GTTTAA | 1.13
AGAAAT | 1.16
CTATAT | 1.46
TCTTAA | 1.19
TTTGGT | 1.29
TAATTG | 1.37
TAGTTT | 1.22
CTCTCA | 1.27
